The text below walks through data of PMC3954793, “SHP-2 Binds to Caveolin-1 and Regulates Src Activity via Competitive Inhibition of CSK in Response to H2O2 in Astrocytes” (PLoS ONE, 2014).

Results are given in words; binding and its absence hold for the method and conditions named. For part of these data: Binding seen in cells or lysates may run through a third protein. Some binding calls cover weakened binding; strength is not graded here.

In experiment [1] the target is T1, caveolin-1 (human (endogenous in CRT-MG)), Q03135.
T1 chain: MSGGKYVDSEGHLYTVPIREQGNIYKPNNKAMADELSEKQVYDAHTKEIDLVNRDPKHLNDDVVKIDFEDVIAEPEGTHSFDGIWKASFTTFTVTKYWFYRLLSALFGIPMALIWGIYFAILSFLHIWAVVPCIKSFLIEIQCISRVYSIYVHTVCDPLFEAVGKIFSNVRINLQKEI
The experiment in a line: co-IP; CRT-MG whole-cell lysates (700 µg, RIPA buffer), cells treated with or without H2O2 for 10 min, also after GFP, CSK or SHP-2 siRNA for 48 h; immunoprecipitation with anti-caveolin-1, immunoblot. As to conditions: remark: other sources report otherwise. (In western blotting, separated proteins are transferred to a membrane and probed.)

The target in experiment [2] is T2, wild-type (WT) caveolin-1 (human), Q03135.
T2 chain: T1 chain
The experiment in a line: co-IP; HEK 293T cells transfected with caveolin-1 WT or Y14A, 5 mM H2O2 for 10 min; 700 µg lysate in RIPA buffer; immunoprecipitation with anti-CSK, anti-SHP-2 or anti-caveolin-1, immunoblot. Particulars: remark: other sources report otherwise.

For experiment [3], the target named is recombinant glutathione S-transferase (GST)-CSK (UniProt P41240). The experiment in a line: SPR; SPRmicro system (K-MAC), rGST-SHP-2 or rGST-CSK immobilised on a G1 gold chip (NHS monolayer), Cav-1 pY 14 peptide injected at 10 to 1,000 µg/mL, 1×TBS, 20 µL/min; both purified. On the technique in general: SPR reads the build-up and loss of mass on a sensor chip optically.

B1: c-Src tyrosine kinase (CSK), P41240 1-450 (enzyme)
chain: MSAIQAAWPSGTECIAKYNFHGTAEQDLPFCKGDVLTIVAVTKDPNWYKAKNKVGREGIIPANYVQKREGVKAGTKLSLMPWFHGKITREQAERLLYPPETGLFLVRESTNYPGDYTLCVSCDGKVEHYRIMYHASKLSIDEEVYFENLMQLVEHYTSDADGLCTRLIKPKVMEGTVAAQDEFYRSGWALNMKELKLLQTIGKGEFGDVMLGDYRGNKVAVKCIKNDATAQAFLAEASVMTQLRHSNLVQLLGVIVEEKGGLYIVTEYMAKGSLVDYLRSRGRSVLGGDCLLKFSLDVCEAMEYLEGNNFVHRDLAARNVLVSEDNVAKVSDFGLTKEASSTQDTGKLPVKWTAPEALREKKFSTKSDVWSFGILLWEIYSFGRVPYPRIPLKDVVPRVEKGYKMDAPDGCPPAVYEVMKNCWHLDAAMRPSFLQLREQLEHIKTHELHL
modifications: here or on the partner: phosphotyrosine at 14 after H2O2 treatment
With B1, the binding result in experiment [1] and in experiment [2] was “binds” throughout.

With GHLYTVPIREQGN (phosphotyrosine at position 4 of the peptide (Tyr 14 of caveolin-1)) [caveolin-1 phosphopeptide Cav-1 pY 14], the binding entry in experiment [3] is reported as “binds”.
